These are literature values, as cited in patent publication US8530492B2, “Oligomer-protein tyrosine kinase inhibitor conjugates” (Nektar Therapeutics, priority 2009, dated 2013).

For this data set the following is noted: control compounds of the Caco-2 assay; cited from earlier work.

Consider `CC(C)NCC(O)COc1ccc(CC(N)=O)cc1` (stereo not shown) [atenolol], for which the human absorption result was “approximately 50%”.
